{"sequences": {"note": "The chains behind the UniProt entries cited, without tags or fusion partners. Residues count along the entry.", "UniProt P77774, residues 21-392": "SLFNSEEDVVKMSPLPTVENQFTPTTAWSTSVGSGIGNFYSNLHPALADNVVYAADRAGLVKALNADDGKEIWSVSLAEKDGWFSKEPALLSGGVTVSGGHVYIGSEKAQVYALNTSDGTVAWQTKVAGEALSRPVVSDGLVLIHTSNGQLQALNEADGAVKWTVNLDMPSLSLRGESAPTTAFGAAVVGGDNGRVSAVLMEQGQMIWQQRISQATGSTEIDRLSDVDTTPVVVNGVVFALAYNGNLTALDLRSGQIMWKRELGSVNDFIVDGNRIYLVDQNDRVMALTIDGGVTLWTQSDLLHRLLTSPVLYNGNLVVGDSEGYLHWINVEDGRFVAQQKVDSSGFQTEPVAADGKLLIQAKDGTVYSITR"}, "source": "paper PMC3506653", "binders": {"B1": {"name": "peptide derived from the β-barrel of LamB (peptide)", "peptide": "DFHGYARSGIGWT"}}, "target": "E. coli BamB (E. coli) (UniProt P77774)", "test": "ITC; peptide titrated into ecBamB in the cell (203 µM LamB peptide on 25 µM ecBamB; 1.5 mM BtuB peptide on 17 µM ecBamB); iTC 200, 25°C, buffer A (25 mM TrisHCl pH 8.0, 150 mM NaCl); peptide into buffer as control; both purified", "note": "Results are given in words; binding and its absence hold for the method and conditions named."}
{"binder": "B1", "values": [{"measurement": "binding", "value": "no binding (tested: 203 µM LamB peptide on 25 µM ecBamB)"}]}
